# Data taken from PubChem BioAssay AID1347423 (Functional Genomics Laboratory (NCATS/FGL), 2020).
# Hit rate of the full screen: of about 52,000 sequences, about 210 (0.4%) were called active.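 How the source made its calls: active means gene whose silencing raises cell survival under the drug, median off-target-corrected z-score across its silencing RNAs 2 or more; inactive means the rest.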 Some of the results follow.
# Experiment: Resistance to Poly (ADP-Ribose) Polymerase inhibitor: Gene Identification via Genome-wide siRNA Screen
# Details: mouse BRCA2 R2336H ES cells, olaparib, CellTiter-Glo viability; active compounds read high
# Method in brief: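 Mouse BRCA2 R2336H ES cells were reverse-transfected with siRNA (20 nM final), treated at 48 h with 500 nM olaparib, and read by CellTiter-Glo after 72 h. Scores: MAD-based z per siRNA, median per gene, seed off-target correction.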
row,Sequence,z-score
1,GCAUUUAAAAUACACGGUGTT against Arg1,inactive: -1.47
2,GGCUCAAGUAUGAGAAUGATT against Krt1-15,inactive: -1.4
3,GGCAGCUAAGAAUGGAGCATT against Mir16,inactive: 0.366
4,CCAAGAAGAGUUAUGUAAUTT against Depdc1a,inactive: -0.716
5,GGAGUUGGGUAUCAUUAAGTT against Gphb5,inactive: 0.127
6,GGAACCACUACAAAAGUUGTT against Si,inactive: 0.242
7,GUAUUUUACAUAAACAGGGTT against V1rc28,inactive: 0.102
8,GAAAGCGAUGGAGAUCUUATT against Cxcl4,inactive: -0.0865
9,GGUUUAGCUGCAUUAAAAGTT against Lrrc27,inactive: 1.81
10,CCGGUUACAAACUCAACUGTT against 4831426I19Rik,inactive: -0.788
11,CCAGAAAACUCAGUUUGAATT against 6530407C02Rik,inactive: 0.0295
12,GGCAUGUCUACACACCAUCTT against Ankra2,inactive: 1.57
13,GGACAUGCUCUAUAAGAAGTT against Pabpc5,inactive: 0.961
14,GGGAUUUAAAAGGAAAUGUTT against 9830147J24Rik,inactive: 0.719
15,GGAUUAUUUCCUUUCUUUGTT against 4933403M22Rik,inactive: -0.422
16,GCGACUUCAGAUUUCAUUATT against Sfrs2,inactive: -2.65
17,GGUAAUUCAGUCUUAUACATT against Pcdhb21,inactive: 1.27
18,GCAUAAUGACCAUGUCUGUTT against 1700001J03Rik,inactive: -0.102
19,GGAAGAAAGACUAGACUCGTT against 6230401O10Rik,inactive: 0.315
20,GCUGACAUUGAGAAUCGGGTT against Hcph,inactive: 1.47
21,GGGAGUGAAUCAUUAUCUUTT against 8030499H02Rik,inactive: 0.146
22,CCCAAUUUUUAGUCUUAUGTT against D330012F22Rik,inactive: 0.0439

row,Sequence,z-score
1,GGAGAUCCAAGAGAAAUUUTT against Csf3r,inactive: -0.0129
2,GCCUCGUAUAGAGAAGUGATT against Gnat1,inactive: -0.388
3,GGAAGAAACAUGUAUCAUGTT against Tff1,inactive: -0.149
4,GUAUCCUUAUUUUUGCCCATT against V1rb3,inactive: -0.663
5,GGCCUCCUAAGAGGACUCATT against Dach1,inactive: -0.306
6,GGCAACAUUAUCAACAUGUTT against Dhrs6,inactive: 0.0969
7,GGCAGAGAAGCAAAACCAATT against 1700012F17Rik,inactive: -1.2
8,GGAAGAAAAUGAGAGCACUTT against Spt2,inactive: -0.504
9,GGACUUUAUCAAGGAGUAATT against Mftc,inactive: -0.878
10,GGCAGUACCACUUGUCUUATT against Tctex1,inactive: -0.814
11,GGAUUUCAACUAUUUGUUGTT against Spna1,inactive: 0.374
12,GGACAUGGAGAACCUUUUUTT against 0710008K08Rik,inactive: -0.731
13,GGAUGGAACUUACAACUGGTT against SIRP-beta,inactive: -1.18
14,CCUCUUUGGAAGAAUGCUGTT against Mapk11,inactive: 0.306
15,GGAAAAUCAGCAUUUUGCCTT against Cdca3,inactive: 0.893
16,GCAGAUCUCCGAUUAUUUUTT against Doc2b,inactive: 1.18
17,GGACUUCAAAUGCUGUGGCTT against 1110014F12Rik,inactive: -0.562
18,GGGAAAAUGCUUUGUUGGATT against Rqcd1,active: 1.97
19,GGUGAGACGUGCUUCAAAUTT against D130058I21Rik,inactive: -0.52
20,GCCUCCCUGAAUGCCUAUATT against Sectm1,inactive: -2.4
21,GGUACCUGUGCUAUGGAGUTT against C230052I12Rik,inactive: 0.182
22,GGUGCCCUAUGGAGAGAAATT against Serac1,inactive: -0.0661

# Part of the list above in another layout.
row	Sequence	z-score
14	CCUCUUUGGAAGAAUGCUGTT against Mapk11	inactive: 0.306
17	GGACUUCAAAUGCUGUGGCTT against 1110014F12Rik	inactive: -0.562

# Taken from the results shown for reference:
row,Sequence,z-score
18,GGGAAAAUGCUUUGUUGGATT against Rqcd1,active: 1.97
19,GGUGAGACGUGCUUCAAAUTT against D130058I21Rik,inactive: -0.52
20,GCCUCCCUGAAUGCCUAUATT against Sectm1,inactive: -2.4

# The list goes on:

row,Sequence,z-score
1,GGAGGAAGAUUUUUUUGCUTT against Arfgap3,inactive: 1.44
2,GAGAAUAAUACCAUCUCCUTT against Olfr482,inactive: 0.757
3,GCUCAGUUUACCACACGAGTT against Arl11,inactive: -1.19
4,GCUCAAUCUAGGGCGAAGATT against Cd3z,inactive: -1.17
5,GCUGAAAACUAGUCAGUCCTT against Epn3,inactive: -0.288
6,GGCCAUUAUUCGUGAGUUGTT against 2810037C14Rik,inactive: -0.0825
7,GCCUAGACCAGACACCAAATT against Prp15,inactive: 1.2
8,GGACCAAGGGUUCAUAGCATT against Wdr35,inactive: 0.862
9,GGAAGCUGCACGGCAACUUTT against Btn2,inactive: -0.644
10,GGAGAAGAGGACUUUGGUGTT against Tmem10,inactive: 1.01
11,CCAUUCACAGGUAGAGGAATT against AA415817,inactive: 1.52
12,CCCUAGAAGAGCUCUGUUATT against Cts6,inactive: -0.275
13,GGUGACAAAAGUCUUUAACTT against Mkrn3,inactive: 0.361
14,CGAUGAUUAACAUCUUACGTT against Scrn1,inactive: -0.0702
15,GGUAUAAAGCCUCAGUUUUTT against Odag,inactive: 0.234
16,GCGGCAGUAAAUUGUGAGGTT against Grin3b,inactive: -0.406
17,GCCUAGACCAGAGAAAGGUTT against AW555464,inactive: 0.139
18,GGUGAAAAUACAUUGCCAGTT against Plk4,inactive: -0.482
19,GGUGCCGAACGUGUAAUUATT against Rarb,inactive: -0.423
20,GGGCAAAGAUCAAAGAGAUTT against Man1a,inactive: 0.563
21,GGAUAACCAAAGGAAUGUUTT against Cldn17,inactive: 0.39
22,GGAAGGUUGUAAGUUUAAATT against Krtap14,inactive: 1.18
